Experimental data reported in the supplement of paper PMC6078165.
The reference is the same well before dosing, and untreated signal decays as well.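 Labels refer to human fibroblasts, largely primary: uterine (C12385, HUF), lung (H6013), bone (Hs27A), adrenal (HADF), skin (WS1), plus mammary HMF and breast cancer-associated Hs343T. Cancer lines are basal-like or mesenchymal-like triple-negative breast cancer. The paper counts as hits responses shifting over 3x the replicate standard deviation. The tissue of the other fibroblasts is not given here.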

Test system: HCC1143
Experiment: relative JC-1 red fluorescence (viability) vs pre-drug, coculture with fibroblast (fraction); higher = more viable cancer cells
Conditions: 1 µM
Protocol: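 JC-1 labelled TNBC cells cocultured 1:1 (1,500 cells each) with CellTrace Violet stained primary or stromal fibroblasts in 384-well plates in FluoroBrite medium, treated with one of 42 anticancer drugs at 0.1, 1, 10 or 100 uM. JC-1 red fluorescence (mitochondrial integrity in cancer cells only) was read by plate reader every 8 h for 72 h. Values are normalised to each well's pre-drug value. The stock of one drug was tenfold lower, so its dose labels may be too high.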

CS(=O)(=O)CCNCc1ccc(-c2ccc3ncnc(Nc4ccc(OCc5cccc(F)c5)c(Cl)c4)c3c2)o1 [Lapatinib]
relative JC-1 red fluorescence
Conditions | 8 h | 16 h | 24 h | 32 h | 40 h | 48 h | 56 h | 64 h | 72 h
coculture fibroblast: C12385 | 0.832 | 0.7747 | 0.701 | 0.633 | 0.563 | 0.513 | 0.478 | 0.44 | 0.42
coculture fibroblast: H6013 | 0.772 | 0.735 | 0.7 | 0.676 | 0.616 | 0.605 | 0.572 | 0.56 | 0.546
coculture fibroblast: H6019 | 0.871 | 0.822 | 0.791 | 0.742 | 0.728 | 0.711 | 0.677 | 0.644 | 0.626
coculture fibroblast: H6076 | 0.814 | 0.8496 | 0.7953 | 0.726 | 0.69 | 0.66 | 0.62 | 0.592 | 0.585
coculture fibroblast: H6231 | 0.824 | 0.7965 | 0.7437 | 0.636 | 0.634 | 0.59 | 0.5583 | 0.5204 | 0.515
coculture fibroblast: HADF | 0.745 | 0.665 | 0.629 | 0.622 | 0.528 | 0.5 | 0.479 | 0.452 | 0.444
coculture fibroblast: HCFa | 0.804 | 0.75 | 0.713 | 0.695 | 0.616 | 0.588 | 0.538 | 0.504 | 0.476
coculture fibroblast: HCPF | 0.814 | 0.8229 | 0.783 | 0.666 | 0.694 | 0.65 | 0.61 | 0.585 | 0.577
coculture fibroblast: HHSteC | 0.841 | 0.776 | 0.719 | 0.668 | 0.587 | 0.557 | 0.517 | 0.481 | 0.442
coculture fibroblast: HMF | 0.8381 | 0.91 | 0.86 | 0.737 | 0.769 | 0.728 | 0.687 | 0.641 | 0.61
coculture fibroblast: HPFa | 0.929 | 0.8618 | 0.8517 | 0.7796 | 0.7195 | 0.6961 | 0.65 | 0.61796 | 0.5813
coculture fibroblast: HUF | 0.874 | 0.799 | 0.75 | 0.683 | 0.639 | 0.613 | 0.569 | 0.542 | 0.514
coculture fibroblast: Hs5 | 0.889 | 0.899 | 0.897 | 0.89 | 0.833 | 0.807 | 0.792 | 0.781 | 0.765
coculture fibroblast: Hs27A | 0.7808 | 0.7564 | 0.708 | 0.72 | 0.58 | 0.558 | 0.514 | 0.498 | 0.509
coculture fibroblast: Hs343T | 0.8194 | 0.869 | 0.802 | 0.688 | 0.681 | 0.6344 | 0.577 | 0.542 | 0.517
coculture fibroblast: WS1 | 0.825 | 0.755 | 0.698 | 0.607 | 0.551 | 0.51 | 0.475 | 0.449 | 0.426
